{"source": "patent US10940218B2", "about": "“Treatment of meningiomas using phenylbenzothiazole, stilbene, biphenylalkyne, or pyridine derivatives” (MAYO FOUNDATION FOR MEDICAL EDUCATION AND RESEARCH, priority 2012, dated 2021)", "system": "meningiomas", "experiment": "PiB PET/CT imaging of meningiomas in patients", "format": "in vivo, human", "conditions": "meningiomas 5 mm and thicker vs all other tumors, 834 patients", "excerpt": "An Alzheimer's imaging database of two hundred forty-one patients was reviewed. […] All patients had been imaged by at least one MRI, as well as by FDG-PET/CT and PET/CT using the compound of formula (V). MRI reports of all patients were reviewed for possible meningiomas and other tumors. […] The diagnostic confidence of the radiologists interpreting the studies varied slightly, depending on factors such as tumor location and previous imaging. […] Tumors smaller than 7 millimeters are generally considered too small to be evaluated by PET or PET/CT. This is an excepted limitation of PET or PET/CT as a modality. […] None of the meningiomas in the series would be classified as atypical or aggressive based on MRI or CT imaging. One presumed extracranial schwannoma was seen, showing mild uptake on FDG-PET/CT, but no uptake on PET/CT using the compound of formula (V). […]\nTumors found in any of the subjects were then categorized as possible meningiomas or non-meningiomas based on the reading of the reporting neuroradiologist. […]\nPET imaging was performed as part of the Mayo Clinic Study of Aging as previously described. […] Cerebral PiB retention, a marker of amyloid deposition, was measured as previously described. […]", "data": [{"smiles": "[11CH3]Nc1ccc(-c2nc3ccc(O)cc3s2)cc1", "note": "[PiB, [N-Methyl-^11C]2-(4′-methylaminophenyl)-6-hydroxybenzothiazole]", "values": [{"measurement": "sensitivity of PiB PET/CT for meningiomas", "result": 100, "unit": "%"}, {"measurement": "specificity of PiB PET/CT for meningiomas", "result": 100, "unit": "%"}]}]}
